{"source": "PubChem BioAssay AID540256", "about": "(National Center for Advancing Translational Sciences (NCATS), 2011)", "note": "The campaign covered roughly 300,000 compounds. About 3,700 (1.2%) were called active. The shares of active, inactive and inconclusive entries below differ from those in the screen. Calls follow the shape of the full dose curve; tested in HEK293 cells. A potency beside an inconclusive call is a rough fit, not a confirmed value. % is scaled to controls: 0 for no effect and ±100 for the full control effect; potency is read from the fitted curve at half-maximal effect."}
{"assay": "qHTS for Inhibitors of binding or entry into cells for Lassa Virus; also: nearly all actives have a fitted effect of over 50% in size", "conditions": "Lassa virus pseudotype entry inhibition, cell reporter; activity change, negative = inhibition: at 37.9 µM (top of the series) unless noted"}
{"smiles": "CCS(=O)(=O)c1ccc(N=Nc2ccc(O)c3ncccc23)c(OC)c1", "Potency": "inconclusive: 35.5 µM [inhibitor, single point]"}
{"smiles": "COc1ccccc1NC(=O)c1ccc(NC(=O)c2ccco2)cc1", "Potency": "inconclusive: 35.5 µM [inhibitor, single point]"}
{"smiles": "Cc1ccc(-n2c3c(c(O)c(-c4ccccc4)c2=O)C(=O)CC(C)(C)C3)cc1", "Potency": "inconclusive: 29.1 µM [inhibitor, single point]"}
{"smiles": "CC1=NNC(=O)C1CCC(=O)N/N=C/c1ccccc1", "note": "(stereo not drawn)", "Potency": "inconclusive: 6.31 µM [inhibitor, single point]"}
{"smiles": "COc1ccc(C(=O)NCc2ccc(C)cc2)cc1S(=O)(=O)N1CCCc2ccccc21", "activity change, negative = inhibition": "inactive: -27.5%"}
{"smiles": "COc1ccc(CCNC(=O)CCCn2c(=O)c3cccn3c3ccc(F)cc32)cc1OC", "activity change, negative = inhibition": "inactive: -0.0124% [at 46.1 µM]"}
{"smiles": "CCOc1ccc(Nc2nc(Nc3ccc(OCC)cc3)nc(N3CCOCC3)n2)cc1", "activity change, negative = inhibition": "inactive: 1.6% [at 46.1 µM]"}
{"smiles": "COc1cccc(C(=O)NNC(=O)c2cccc3ccccc23)c1", "activity change, negative = inhibition": "inactive: -1.37%"}
{"smiles": "O=C(Nc1ccc(F)cc1Cl)c1ccc2c(=O)n3c(nc2c1)CCC3", "Potency": "inconclusive: 3.16 µM [activator, single point]"}
{"smiles": "FC(F)(F)c1cnc(-n2cc[nH]c2=S)c(Cl)c1", "Potency": "inconclusive: 3.98 µM [activator, full curve, poor fit]"}
{"smiles": "COc1ccc(OCC(=O)N2CCN(C(=O)c3ccc(OC)cc3)CC2)cc1", "Potency": "inconclusive: 5.62 µM [activator, single point]"}
{"smiles": "COc1ccc(/C=N/NC(=S)Nc2cc(S(=O)(=O)N3CCOCC3)ccc2N2CCOCC2)cc1O", "Potency": "inconclusive: 20.6 µM [inhibitor, partial curve, poor fit]"}
{"smiles": "CCc1cc2c(=O)c(-c3ccc4c(c3)OCCO4)coc2c(CN2CCCCC2C)c1O", "note": "(stereo not drawn)", "Potency": "inconclusive: 2 µM [inhibitor, full curve, poor fit]"}
{"smiles": "Cc1ccc(OCCC(=O)Nc2ccc3c(c2)OCCCO3)cc1", "activity change, negative = inhibition": "inactive: 3.91%"}
{"smiles": "O=C1CC(c2ccccc2)=Nc2ccc(Br)cc2N1", "Potency": "inconclusive: 17.8 µM [inhibitor, single point]"}
{"smiles": "CCOC(=O)N/N=C/c1cn(CCCOc2ccccc2)c2ccccc12", "Potency": "inconclusive: 35.5 µM [inhibitor, single point]"}
{"smiles": "CC(C)c1[nH]nc2c1C(C(C)C)C(C#N)=C(N)O2", "note": "(stereo not drawn)", "Potency": "inconclusive: 6.51 µM [inhibitor, partial curve, poor fit]"}
{"smiles": "O=C(N/N=C/c1ccc([N+](=O)[O-])cc1)c1[nH]ncc1Br", "activity change, negative = inhibition": "inactive: 5.9%"}
{"smiles": "COc1ccc(N2CC(NC(=O)c3ccc(S(=O)(=O)N4CCOCC4)cc3)CC2=O)cc1", "note": "(stereo not drawn)", "activity change, negative = inhibition": "inactive: -3.92% [at 46.1 µM]"}
{"smiles": "Cc1ccnc(NC(=O)c2oc3ccccc3c2C)c1", "Potency": "active: 3.55 µM"}
{"smiles": "COc1cc2c(cc1OC)C(COc1ccc(C(C)C)cc1)N(C(=O)COc1ccccc1)CC2", "note": "(stereo not drawn)", "Potency": "inconclusive: 0.562 µM [inhibitor, full curve, poor fit]"}
{"smiles": "COc1ccccc1NC(=O)C1CCN(c2ncnc3c2nc2n3CCCCC2)CC1", "Potency": "inconclusive: 20 µM [inhibitor, single point]"}
{"smiles": "Cc1ccc(Cl)c(OCCCN(C)Cc2ccccc2)c1", "Potency": "inconclusive: 35.5 µM [inhibitor, partial curve, poor fit]"}
{"smiles": "Cc1cccc(N2N=C(C(=O)OCC(=O)c3ccccc3)CCC2=O)c1", "Potency": "inconclusive: 1.26 µM [inhibitor, single point]"}
{"smiles": "CN(Cc1ccccc1)C1=CC(=[N+]2CCCC2)CC(C)(C)C1", "Potency": "inconclusive: 1.41 µM [inhibitor, full curve]"}
{"smiles": "Cc1ccccc1OCC(=O)N(Cc1ccc(C(C)C)cc1)C1CCS(=O)(=O)C1", "note": "(stereo not drawn)", "activity change, negative = inhibition": "inactive: 4.76% [at 46.1 µM]"}
{"smiles": "O=C(NC(=S)Nc1ccccc1Br)C1CCCCC1", "Potency": "inconclusive: 28.2 µM [inhibitor, partial curve, poor fit]"}
{"smiles": "CSc1ccccc1NC(=O)CO/N=C(\\C)c1cc2ccccc2o1", "Potency": "inconclusive: 29.1 µM [inhibitor, single point]"}
{"smiles": "NS(=O)(=O)c1cccc(NC(=O)c2cccc(-c3ccc(O)cc3)c2)c1", "Potency": "inconclusive: 31.6 µM [inhibitor, single point]"}
{"smiles": "CCC(c1nnc(SCC(=O)Nc2ccc(Cl)cc2C(F)(F)F)n1C1CCCCC1)N(C)C", "note": "(stereo not drawn)", "Potency": "active: 12.6 µM"}
{"smiles": "CCOc1ccc(NC(=S)NNC(=S)Nc2cccc(C(F)(F)F)c2)cc1", "Potency": "inconclusive: 12.6 µM [inhibitor, partial curve, poor fit]"}
{"smiles": "Cc1ccc(CN2CC(C(=O)Nc3ccccc3N3CCCC3)CC2=O)cc1", "note": "(stereo not drawn)", "activity change, negative = inhibition": "inactive: -1.81%"}
{"smiles": "O=[N+]([O-])c1ccc(Cl)c(NC(=S)N2CCCC2)c1", "activity change, negative = inhibition": "inactive: -1.92% [at 46.1 µM]"}
{"smiles": "CC1CCN(S(=O)(=O)c2ccc3ncn(CC(=O)N(C)C4CCCCC4)c(=O)c3c2)CC1", "Potency": "inconclusive: 2 µM [inhibitor, single point]"}
{"smiles": "c1ccc2c3c([nH]c2c1)CCNC3", "activity change, negative = inhibition": "inactive: -0.979% [at 46.1 µM]"}
{"smiles": "COc1ccc(CC(=O)Nc2nnc(C(C)(C)C)s2)cc1OC", "Potency": "inconclusive: 35.5 µM [inhibitor, partial curve, poor fit]"}
{"smiles": "CN(C(=O)C(C)(C)C)c1ccc(OCC(=O)N2CCc3ccccc3C2)cc1", "Potency": "inconclusive: 3.55 µM [inhibitor, partial curve, poor fit]"}
{"smiles": "CC(Oc1ccc(Cl)cc1)C(=O)Nc1ccc(S(=O)(=O)Nc2nccs2)cc1", "note": "(stereo not drawn)", "Potency": "inconclusive: 10 µM [inhibitor, partial curve, poor fit]"}
{"smiles": "COc1cccc(NC(=O)Cc2c(C(=O)O)[nH]c3ccccc23)c1", "activity change, negative = inhibition": "inactive: -0.598%"}
{"smiles": "O=C(COc1ccc(Br)cc1)Nc1cccc2cccnc12", "activity change, negative = inhibition": "inactive: 23.7% [at 46.1 µM]"}
{"smiles": "Cc1ccc(C)c(CN2C(=O)C(O)(c3c[nH]c4ccccc34)c3ccccc32)c1", "note": "(stereo not drawn)", "Potency": "inconclusive: 3.55 µM [inhibitor, partial curve, poor fit]"}
{"smiles": "Cc1ccccc1C(=O)Nc1ccc(C(=O)N/N=C/c2ccc(O)c(Br)c2)cc1", "Potency": "inconclusive: 11.2 µM [inhibitor, partial curve, poor fit]"}
{"smiles": "Cc1ccc(NC(=O)Cc2c[nH]c3ccccc23)cc1S(=O)(=O)N1CCCCCC1", "Potency": "inconclusive: 20.6 µM [inhibitor, partial curve, poor fit]"}
{"smiles": "COc1ccccc1-c1nc(SCC(=O)N2CCC(C(N)=O)CC2)n[nH]1", "activity change, negative = inhibition": "inactive: 9.23%"}
{"smiles": "Cc1ccccc1OCC(=O)Nc1ccc(S(=O)(=O)N2CCOCC2)cc1", "Potency": "inconclusive: 1.26 µM [inhibitor, single point]"}
{"smiles": "O=C(/C=C/c1ccc(Cl)cc1Cl)N1CCN(c2ccccc2[N+](=O)[O-])CC1", "Potency": "inconclusive: 0.708 µM [inhibitor, single point]"}
{"smiles": "Cc1cc(O)ccc1Nc1nc(-c2cccs2)cs1", "Potency": "inconclusive: 35.5 µM [inhibitor, single point]"}
{"smiles": "COc1ccc(C)cc1S(=O)(=O)N1CCN(C)CC1c1ccccc1", "note": "(stereo not drawn)", "Potency": "inconclusive: 35.5 µM [activator, single point]"}
{"smiles": "CCOc1ccc(-c2nonc2NC(=O)c2oc3cc(Br)ccc3c2C)cc1", "activity change, negative = inhibition": "inactive: -0.395% [at 46.1 µM]"}
{"smiles": "Cc1cc(C(=O)CSc2nnc(-c3cccc(F)c3)n2N)c(C)n1Cc1ccc2c(c1)OCO2", "activity change, negative = inhibition": "inactive: -26.7%"}
{"smiles": "CCOC(=O)N1C2=NC(C(=O)OC)=C(C(=O)OC)[C@@H]3N(C)c4ccccc4[C@]23C[C@H]1C(=O)OC", "Potency": "inconclusive: 0.0067 µM [activator, full curve, poor fit]"}
{"smiles": "CCOCCCNS(=O)(=O)c1ccccc1", "activity change, negative = inhibition": "inactive: 2.54%"}
{"smiles": "CC(OC(=O)c1cccnc1)C(=O)Nc1ccc2c(c1)OCO2", "note": "(stereo not drawn)", "activity change, negative = inhibition": "inactive: 8.17%"}
{"smiles": "CC1(OC(=O)C2CCCC2)C(=O)C=C2C=C(c3ccsc3)N(CC3CC3)C=C2C1=O", "note": "(stereo not drawn)", "Potency": "inconclusive: 5.31 µM [activator, single point]"}
{"smiles": "CC(=O)N1CCCc2cc(S(=O)(=O)NCc3ccc(OC(C)C)cc3)ccc21", "Potency": "inconclusive: 3.16 µM [activator, full curve]"}
{"smiles": "CC1=C(C(=O)OCC2CCCO2)C(c2ccc(Cl)c(Cl)c2)NC(=O)N1", "note": "(stereo not drawn)", "Potency": "inconclusive: 8.91 µM [inhibitor, partial curve, poor fit]"}
{"smiles": "Cc1c(NC(=O)c2c(F)c(F)c(F)c(F)c2F)c(=O)n(-c2ccccc2)n1C", "activity change, negative = inhibition": "inactive: 17.9%"}
{"smiles": "Cc1nc2ccc(NC(=O)c3ccc(Br)o3)cc2s1", "activity change, negative = inhibition": "inactive: -3.78%"}
{"smiles": "O=C(CSCc1ccccc1)Nc1ccc2c(c1)OCO2", "Potency": "inconclusive: 1.41 µM [activator, partial curve]"}
{"smiles": "CCOc1ccc(NS(=O)(=O)c2cc(NC(=O)C3CC3)ccc2C)cc1Br", "Potency": "inconclusive: 17.8 µM [inhibitor, partial curve, poor fit]"}
{"smiles": "CC(NC(=O)c1cc2sccc2n1Cc1ccc(F)cc1)c1ccccc1", "note": "(stereo not drawn)", "activity change, negative = inhibition": "inactive: -19.5% [at 46.1 µM]"}
{"smiles": "CCOC(=O)c1[nH]c(C)c(C(=O)C(C)C)c1C", "Potency": "inconclusive: 2.31 µM [activator, full curve, poor fit]"}
{"smiles": "Cc1ccc2c(CN(C)Cc3ccc(OC(F)F)cc3)cc(=O)oc2c1C", "Potency": "inconclusive: 22.4 µM [inhibitor, single point]"}
{"smiles": "COc1ccc(C(=O)Nc2ccc(-c3cc(C(F)(F)F)nn3-c3ccccc3)cc2)cc1OC", "Potency": "inconclusive: 25.1 µM [inhibitor, single point]"}
{"smiles": "O=C(c1c[nH]c2ccccc12)N1CCN(Cc2ccccc2)CC1", "Potency": "inconclusive: 20 µM [inhibitor, partial curve, poor fit]"}
{"smiles": "O=C(Cn1c(C(=O)N2CCN(C3CCCCC3)CC2)cc2sccc21)c1ccccc1", "activity change, negative = inhibition": "inactive: -28%"}
{"smiles": "Cc1cc(NCCCCO)n2c(nc3ccccc32)c1C#N", "Potency": "inconclusive: 0.92 µM [inhibitor, full curve, poor fit]"}
{"smiles": "COc1ccc(S(=O)(=O)N2c3cc(C)ccc3OCC2C(C)(C)C)cc1", "note": "(stereo not drawn)", "Potency": "inconclusive: 25.9 µM [inhibitor, partial curve, poor fit]"}
